Measurements as given in paper PMC4868538.
These are yes or no findings as the source states them, for the method shown. Some results given as binding are weak or reduced against the parent protein; the word gives no strength. Tags and fused reporters may be left off the sequences shown.

Chains of the proteins cited; added tags and fusions are not shown. Lines headed by an entry give the natural chain unless they say otherwise; changes in a name come on top.
UniProt P53708: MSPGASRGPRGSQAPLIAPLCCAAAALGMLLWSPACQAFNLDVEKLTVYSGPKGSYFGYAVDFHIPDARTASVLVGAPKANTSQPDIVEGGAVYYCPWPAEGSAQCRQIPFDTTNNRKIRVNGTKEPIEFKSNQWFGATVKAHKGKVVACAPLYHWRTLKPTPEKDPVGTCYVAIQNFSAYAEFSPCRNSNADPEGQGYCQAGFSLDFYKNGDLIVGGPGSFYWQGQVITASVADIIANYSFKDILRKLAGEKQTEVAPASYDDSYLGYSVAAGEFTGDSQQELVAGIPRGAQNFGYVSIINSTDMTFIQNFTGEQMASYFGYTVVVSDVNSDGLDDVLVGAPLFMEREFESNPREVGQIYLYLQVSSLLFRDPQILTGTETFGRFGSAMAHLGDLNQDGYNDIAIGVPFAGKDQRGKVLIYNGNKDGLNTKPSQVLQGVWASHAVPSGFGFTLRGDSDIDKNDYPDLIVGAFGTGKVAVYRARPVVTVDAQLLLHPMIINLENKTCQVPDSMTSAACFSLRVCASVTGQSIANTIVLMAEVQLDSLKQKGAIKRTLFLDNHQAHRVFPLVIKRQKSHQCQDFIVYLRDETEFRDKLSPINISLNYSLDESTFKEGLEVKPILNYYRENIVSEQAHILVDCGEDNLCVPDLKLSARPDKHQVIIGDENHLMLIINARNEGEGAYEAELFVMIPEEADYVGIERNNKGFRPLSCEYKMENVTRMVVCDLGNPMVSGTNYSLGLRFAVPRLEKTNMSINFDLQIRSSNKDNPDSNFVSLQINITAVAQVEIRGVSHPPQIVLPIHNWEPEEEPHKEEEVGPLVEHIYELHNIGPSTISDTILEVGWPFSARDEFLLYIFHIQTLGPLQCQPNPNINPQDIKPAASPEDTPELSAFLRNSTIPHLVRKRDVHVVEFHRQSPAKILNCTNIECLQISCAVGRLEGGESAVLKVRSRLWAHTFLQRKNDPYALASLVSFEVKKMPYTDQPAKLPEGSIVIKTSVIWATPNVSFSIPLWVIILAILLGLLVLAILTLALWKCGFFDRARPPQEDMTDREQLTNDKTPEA
UniProt P06756: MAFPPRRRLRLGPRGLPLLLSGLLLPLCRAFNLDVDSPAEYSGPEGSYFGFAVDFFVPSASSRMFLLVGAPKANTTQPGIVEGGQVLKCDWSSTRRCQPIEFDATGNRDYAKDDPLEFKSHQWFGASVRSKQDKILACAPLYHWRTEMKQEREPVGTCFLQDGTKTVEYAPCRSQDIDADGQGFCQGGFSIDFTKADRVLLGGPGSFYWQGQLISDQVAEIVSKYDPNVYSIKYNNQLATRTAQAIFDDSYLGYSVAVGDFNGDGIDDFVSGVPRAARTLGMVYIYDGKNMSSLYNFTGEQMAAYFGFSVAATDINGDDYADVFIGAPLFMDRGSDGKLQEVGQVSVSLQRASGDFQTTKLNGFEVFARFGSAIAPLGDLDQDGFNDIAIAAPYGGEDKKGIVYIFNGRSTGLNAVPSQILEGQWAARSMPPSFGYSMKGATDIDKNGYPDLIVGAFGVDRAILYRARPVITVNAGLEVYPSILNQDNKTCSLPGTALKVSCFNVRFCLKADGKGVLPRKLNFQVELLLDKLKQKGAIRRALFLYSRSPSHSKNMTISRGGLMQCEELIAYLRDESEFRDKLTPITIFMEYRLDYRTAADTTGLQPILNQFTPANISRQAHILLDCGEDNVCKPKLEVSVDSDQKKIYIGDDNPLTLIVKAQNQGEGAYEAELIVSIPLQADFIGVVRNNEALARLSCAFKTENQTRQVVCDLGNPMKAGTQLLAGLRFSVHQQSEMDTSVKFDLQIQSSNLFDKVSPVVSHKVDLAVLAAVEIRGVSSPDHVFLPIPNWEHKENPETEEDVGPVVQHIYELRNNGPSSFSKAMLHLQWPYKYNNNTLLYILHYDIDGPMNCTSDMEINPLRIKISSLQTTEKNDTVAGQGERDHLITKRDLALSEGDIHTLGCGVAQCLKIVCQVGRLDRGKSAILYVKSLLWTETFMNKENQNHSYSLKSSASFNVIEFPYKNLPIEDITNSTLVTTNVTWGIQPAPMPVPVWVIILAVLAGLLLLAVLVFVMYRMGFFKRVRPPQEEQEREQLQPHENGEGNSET

Target: T1, recombinant Mfge8 (Milk fat Globule Epidermal Growth Factor like 8), fusion protein of full length Mfge8 and a human Fc domain (UniProt P21956)
T1 sequence: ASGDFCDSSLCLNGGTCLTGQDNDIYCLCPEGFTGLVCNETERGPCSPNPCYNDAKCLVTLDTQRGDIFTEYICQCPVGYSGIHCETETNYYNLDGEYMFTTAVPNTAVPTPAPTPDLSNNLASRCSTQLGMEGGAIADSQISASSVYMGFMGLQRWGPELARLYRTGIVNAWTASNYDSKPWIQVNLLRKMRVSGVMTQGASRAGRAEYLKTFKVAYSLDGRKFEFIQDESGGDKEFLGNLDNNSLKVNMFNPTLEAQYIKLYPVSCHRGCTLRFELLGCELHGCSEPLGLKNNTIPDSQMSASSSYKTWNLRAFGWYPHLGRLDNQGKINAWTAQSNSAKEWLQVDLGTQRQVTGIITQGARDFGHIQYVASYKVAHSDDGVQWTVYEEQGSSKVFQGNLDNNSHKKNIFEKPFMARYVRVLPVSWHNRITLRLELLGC
Assay: cell adhesion assay; 1 x 10^5 cells seeded into wells of 96 well MaxiSorp plates coated with rMfge8 (5 µg/ml or a dose range), 1 hr at 37°C; attached cells stained with crystal violet, optical density at 595 nm; blocking antibodies (5 µg/ml) 15 min on ice before plating; only the target purified

Substance	binding
α8β1 integrin on α8-transfected SW480 cells (from UniProt P53708 39-1063; P05556 21-798) (receptor)	binds
αvβ3 integrin on β3-transfected SW480 cells (from UniProt P06756 31-1048; P05106 27-788) (receptor)	binds
αvβ5 integrin on primary human gastric smooth muscle cells (from UniProt P06756 31-1048; P18084 24-799) (receptor)	binds

Results, then the substance that gave them:

binding	Substance
binds	α8β1 integrin on primary human gastric smooth muscle cells (from UniProt P53708 39-1063; P05556 21-798) (receptor)
binds	αvβ5 integrin on mock-transfected control SW480 cells (from UniProt P06756 31-1048; P18084 24-799) (receptor)
